Data reported in PubChem BioAssay AID624297 (National Center for Advancing Translational Sciences (NCATS), 2012).
The whole screen tested about 340,000 compounds, of which about 6,200 (1.8%) were called active. Inconclusive results, whose numbers are uncertain, are shown with a selection of clear calls. Calls follow the shape of the dose curve; as a rule, active = well fitted activation curve with a large enough effect; inconclusive = small, poorly fitted or top-dose-only effect; inactive = no such curve, though single readings can be large or run the other way. Where the call is inconclusive, the potency comes from a doubtful curve fit.

Assay: A quantitative high throughput screen for small molecules that induce DNA re-replication in SW480 colon adenocarcinoma cells. Also: nearly all actives have a fitted effect of over 55% in size. As to re-replication activation: % of control where 0% means no effect.
Conditions: Hoechst DNA content imaging, 48 h; re-replication activation: at 46.1 µM (top of the series) unless noted
Method in brief: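 Hoechst fluorescence of nuclei (405 nm excitation, 500-530 nm emission) measured by plate-scanning imager after 48 hr compound exposure at 37 C; re-replication scored as increased number of nuclei with elevated intensity.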
Potency is read from the fitted curve at half-maximal effect.

| SMILES | Potency | re-replication activation |
| --- | --- | --- |
| CC(C)(C)NC(=O)CN(Cc1cccs1)C(=O)CN1C(=O)C(=O)c2ccccc21 | inconclusive: 0.731 µM [activator, full curve, poor fit] |  |
| CN(C(=O)c1cccc(NC(=O)Cc2ccc(NC(=O)C3CCN(C(=O)C4CCC4)CC3)cc2)c1)C1CCCC1 | inconclusive: 3.66 µM [activator, full curve, poor fit] |  |
| Cc1occc1C(=O)N1CCN(c2ccc(Cl)c(Cl)c2)CC1 |  | inactive: 7.54% |
| CCN(CC)c1ccc(NC(=O)c2ccc(=O)[nH]c2)cc1S(=O)(=O)Nc1ccccc1OC | inconclusive: 20.6 µM [activator, single point] |  |
| O=C(CN1C(=O)NC(c2ccccc2)(c2ccccc2)C1=O)N1CCCCC1 | inconclusive: 18.4 µM [activator, single point] |  |
| O=C(N/N=C/c1ccc(O)cc1)Nc1cccc2nsnc12 | active: 14.6 µM |  |
| O=C(Nc1ccccc1C(F)(F)F)N1CCN(c2ccc3nncn3n2)CC1 |  | inactive: -12.6% |
| Clc1cccc(N=C2NN=C(c3ccc4c(c3)OCCO4)CS2)c1 | inconclusive: 13 µM [activator, partial curve, poor fit] |  |
| COc1ccc(OCCOCCN2CCN(C)CC2)cc1 |  | inactive: -0.759% |
| Cn1c2ccccc2c2cnn(CC(=O)Nc3ccccc3Br)c(=O)c21 |  | inactive: -2.78% |
| O=C(CCl)N=c1sccn1Cc1ccccc1Cl | inconclusive: 0.92 µM [activator, full curve] |  |
| O=C(COc1ccccc1)Nc1nc(-c2ccc(S(=O)(=O)N3CCOCC3)cc2)cs1 |  | inactive: 2.22% |
| Cc1cc2n(n1)C(c1ccc(N(C)C)cc1)Nc1ccccc1-2 (centres undefined) | active: 20.6 µM |  |
| CC(=O)Nc1ccc(N=Nc2ccccc2)cc1[N+](=O)[O-] |  | inactive: 21.2% |
| CC(C)C1CC(CCN)(Cc2ccccc2)CCO1 (centres undefined) | inconclusive: 16.4 µM [activator, partial curve, poor fit] |  |
| COC(=O)Cc1ccc(N(Cc2ccccc2F)S(=O)(=O)c2ccc(C)cc2)cc1 | inconclusive: 25.9 µM [activator, partial curve, poor fit] |  |
| O=C(N/N=C1/C(=O)c2cccc3cccc1c23)c1ccc(Cl)cc1 | inconclusive: 29.1 µM [activator, single point] |  |
| Oc1cccc(/C=N/NC(=S)NCCN2CCOCC2)c1O | inconclusive: 10.3 µM [activator, partial curve] |  |
| CSc1cccc(CN2CCN(Cc3ccc(F)c(F)c3)C(CCO)C2)c1 (centres undefined) | inconclusive: 18.4 µM [activator, partial curve, poor fit] |  |
| CCCCn1nc(NC(=O)CCC)c2cc3cc(OC)ccc3nc21 | inconclusive: 20.6 µM [activator, single point] |  |
| COc1ccc(NC(=O)CNS(=O)(=O)c2cccs2)c(OC)c1 | inconclusive: 0.103 µM [activator, full curve, poor fit] |  |
| COc1ccc2c(C(=O)CCl)c[nH]c2c1 | inconclusive: 5.8 µM [activator, full curve] |  |
| CCCn1c(=N)n(CC(O)c2ccco2)c2ccccc21 (centres undefined) | inconclusive: 29.1 µM [activator, single point] |  |

| SMILES | Potency | re-replication activation |
| --- | --- | --- |
| O=C1C2C3C=CC(C3)C2C(=O)N1CCN1CCN(S(=O)(=O)/C=C/c2ccccc2)CC1 (centres undefined) | inconclusive: 9.2 µM [activator, single point] |  |
| O=C(CCl)N(Cc1cc(=O)[nH]c2ccccc12)c1ccccc1 |  | inactive: 9.53% |
| CCc1cc(=O)oc2cc(C)cc(OCC(=O)NCc3ccccn3)c12 | inconclusive: 5.17 µM [activator, partial curve, poor fit] |  |
| COc1ccc(OC)c(S(=O)(=O)N2CCCC(C(=O)NCc3ccco3)C2)c1 (centres undefined) |  | inactive: -4.54% |
| Cc1ccc(-c2[nH]ncc2/C=N/n2c(COc3ccccc3C)nc3ccccc3c2=O)cc1 | inconclusive: 2.91 µM [activator, full curve] |  |
| Cc1ccc(NS(=O)(=O)c2ccc(C(=O)N3CCCCCCC3)cc2)cc1 |  | inactive: 0.795% |
| O=C(CN1CCN(c2ccc(O)cc2)CC1)NC(c1ccccc1)c1ccccc1 | inconclusive: 20.6 µM [activator, partial curve, poor fit] |  |
| C[C@@H](C(=O)NCc1ccccc1)[C@H]1C[C@]1(C)[C@H](NC(=O)OCc1ccccc1)c1ccccc1 | inconclusive: 23.1 µM [activator, partial curve, poor fit] |  |
| COc1cc2nc(N3CCNCC3)nc(N)c2cc1OC | inconclusive: 13 µM [activator, partial curve, poor fit] |  |
| Cn1c2ccc(F)cc2c2ncn(CC3CCCO3)c(=O)c21 (centres undefined) | inconclusive: 23.1 µM [activator, single point] |  |
| CCNC(=O)C1Cc2cc(S(=O)(=O)N3CCCC3)ccc2N1C(C)=O (centres undefined) | inconclusive: 3.66 µM [activator, single point] |  |
| Cn1c(=O)[nH]c(=O)c2c1nc(Br)n2Cc1cccc(Br)c1 | inconclusive: 8.2 µM [activator, partial curve] |  |
| Cc1ccc(-c2ccc(CO)o2)cc1N |  | inactive: 5.56% |
| CCSc1nc2sc3c(c2c(=O)[nH]1)CCc1ccccc1-3 | inconclusive: 0.461 µM [activator, partial curve, poor fit] |  |
| CCOC(=O)c1cc2ccc3ccccc3c2oc1=O | inconclusive: 4.61 µM [activator, full curve, poor fit] |  |
| CCC(CC)C1C(C#N)=C(N)Oc2n[nH]c(C)c21 (centres undefined) | active: 20.6 µM |  |
| Cc1cccc(C(=O)Nc2cc(NC(=O)c3cccs3)ccc2C)c1 | inconclusive: 29.1 µM [activator, single point] |  |
| Cc1ccc(NC(=O)COc2ccc(-n3cnnn3)cc2)cc1C |  | inactive: -4.63% |
| Cc1cc(C)cc(NC(=O)Nc2ccc(N3CCCCC3)cc2)c1 | inconclusive: 29.1 µM [activator, single point] |  |
| COc1ccccc1NC(=S)N1CCCCCC1 |  | inactive: -4.58% |
| Oc1cc(NCc2ccc(F)cc2)cc2cccnc12 | inconclusive: 6.51 µM [activator, full curve, poor fit] |  |
| Cc1[nH]c2ccc(C(=O)O)cc2c1C | active: 25.9 µM |  |
| Brc1ccc(CSc2nccn2-c2ccccc2)cc1 | inconclusive: 29.1 µM [activator, partial curve, poor fit] |  |

Reprinted at random: 2 records from the list.

| SMILES | Potency | re-replication activation |
| --- | --- | --- |
| Cn1c2ccccc2c2cnn(CC(=O)Nc3ccccc3Br)c(=O)c21 |  | inactive: -2.78% |
| CCNC(=O)C1Cc2cc(S(=O)(=O)N3CCCC3)ccc2N1C(C)=O (centres undefined) | inconclusive: 3.66 µM [activator, single point] |  |

Remaining list, next part:

| SMILES | Potency | re-replication activation |
| --- | --- | --- |
| c1ccc(CN2CCC(N=C3NN=C(c4ccc5c(c4)OCCO5)CS3)CC2)cc1 | inconclusive: 23.1 µM [activator, partial curve, poor fit] |  |
| O=C1/C(=C/c2cccc(Br)c2)SC(=S)N1CCC(=O)N(CCO)c1ccccc1 |  | inconclusive: 31.3% [activator] |
| Cc1cccc2sc(N(CCCN(C)C)C(=O)CCc3ccccc3)nc12 | inconclusive: 29.1 µM [activator, single point] |  |
| COc1ccccc1CNC(=O)COC(=O)Cn1cnc2ccccc21 | inconclusive: 3.66 µM [activator, single point] |  |
| Cc1ccc2[nH]c(=O)c(C3C(C#N)=C(N)Oc4c3ccc3cccnc43)cc2c1 (centres undefined) | inconclusive: 23.1 µM [activator, single point] |  |
| Oc1ccc(/C=N/Nc2nc(-c3ccc(Cl)cc3)cc(C(F)(F)F)n2)cc1 | inconclusive: 25.9 µM [activator, partial curve, poor fit] |  |
| O=C(COc1ccc2ccccc2c1CN1CCOCC1)N1CCc2ccccc21 | inconclusive: 29.1 µM [activator, partial curve, poor fit] |  |
| CCOc1cc(NC(=O)CCl)c(OCC)cc1NC(=O)CCl | active: 3.26 µM |  |
| O=C(c1ccc(-c2ccccc2Cl)o1)N1CCN(S(=O)(=O)c2cccs2)CC1 |  | inactive: 22.6% |
| Cc1csc(C(C)NC(=O)c2ccc(OC3CCN(CCc4ccccc4)CC3)cc2)n1 (centres undefined) | inconclusive: 16.4 µM [activator, single point] |  |
| COc1ccccc1S(=O)(=O)Nc1ccc(-c2nnc3n2CCCCC3)cc1 |  | inactive: -0.839% |
| COc1cc2c(cc1OC)CN(c1ccc(C(N)=O)cc1[N+](=O)[O-])CC2 |  | inactive: -5.93% |
| O=C(CCCc1ccccc1)NC12CC3CC(CC(C3)C1)C2 |  | inactive: 1.89% |
| Cc1cccc(N(Cc2ccccc2)C(=O)c2ccc(F)c(S(=O)(=O)N3CCOCC3)c2)c1 |  | inactive: 0.966% |
| O=C(Nc1cccc(-c2csc(Nc3cccc(C(F)(F)F)c3)n2)c1)c1cc([N+](=O)[O-])cc(C(F)(F)F)c1 | inconclusive: 13 µM [activator, partial curve, poor fit] |  |
| COc1ccc(-c2cc(C(F)(F)F)nc(SCC(=O)NCCCN3CCOCC3)n2)cc1 |  | inactive: -6.94% |
| CCOCCCNC(=O)c1cc(=O)n(Cc2cccc(C)c2)c2ccccc12 | inconclusive: 29.1 µM [activator, single point] |  |
| CN1CCN(CC(=O)Nc2c(C(=O)c3ccccc3)oc3ccccc23)CC1 | inconclusive: 29.1 µM [activator, single point] |  |
| CCOC(=O)c1oc2ccccc2c1NC(=O)c1ccccc1OC | inconclusive: 20.6 µM [activator, single point] |  |
| Cc1c(OCC(N)=O)ccc2c(-c3ccccc3)cc(=O)oc12 | inconclusive: 20.6 µM [activator, single point] |  |
| COc1ccc2cc(C3C(C#N)=C(N)OC(C)=C3C(C)=O)c(Cl)nc2c1 (centres undefined) | inconclusive: 14.6 µM [activator, partial curve, poor fit] |  |
| Cc1ccc(NC(=O)c2ccncc2)cc1S(=O)(=O)N(C)C |  | inactive: -4.02% |
| COC(=O)[C@@]1(Cc2ccc(F)cc2)[C@H]2c3cc(C(=O)N(C)C)n(Cc4ccc(OC(F)(F)F)cc4)c3C[C@H]2CN1C(=O)c1ccccc1 | inconclusive: 20.6 µM [activator, single point] |  |
